# Assay results from paper PMC13291236.
# By UniProt entry, the sequences of proteins in these tests, tags left out. Residues count along the entry.
# UniProt Q03265, residues 44-553: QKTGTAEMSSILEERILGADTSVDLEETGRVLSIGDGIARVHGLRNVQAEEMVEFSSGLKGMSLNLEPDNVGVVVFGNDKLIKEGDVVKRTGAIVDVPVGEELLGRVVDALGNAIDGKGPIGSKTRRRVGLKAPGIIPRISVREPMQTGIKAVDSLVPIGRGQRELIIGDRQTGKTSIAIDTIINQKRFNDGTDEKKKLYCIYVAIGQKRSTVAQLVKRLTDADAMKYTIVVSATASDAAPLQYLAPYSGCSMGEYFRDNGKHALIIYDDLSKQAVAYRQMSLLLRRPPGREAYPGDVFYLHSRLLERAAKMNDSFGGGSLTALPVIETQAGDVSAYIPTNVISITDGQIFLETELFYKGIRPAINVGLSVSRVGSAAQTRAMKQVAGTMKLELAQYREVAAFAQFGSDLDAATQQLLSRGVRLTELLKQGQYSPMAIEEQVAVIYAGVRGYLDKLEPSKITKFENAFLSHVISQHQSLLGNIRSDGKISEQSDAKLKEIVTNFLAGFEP
# UniProt P56480, residues 47-529: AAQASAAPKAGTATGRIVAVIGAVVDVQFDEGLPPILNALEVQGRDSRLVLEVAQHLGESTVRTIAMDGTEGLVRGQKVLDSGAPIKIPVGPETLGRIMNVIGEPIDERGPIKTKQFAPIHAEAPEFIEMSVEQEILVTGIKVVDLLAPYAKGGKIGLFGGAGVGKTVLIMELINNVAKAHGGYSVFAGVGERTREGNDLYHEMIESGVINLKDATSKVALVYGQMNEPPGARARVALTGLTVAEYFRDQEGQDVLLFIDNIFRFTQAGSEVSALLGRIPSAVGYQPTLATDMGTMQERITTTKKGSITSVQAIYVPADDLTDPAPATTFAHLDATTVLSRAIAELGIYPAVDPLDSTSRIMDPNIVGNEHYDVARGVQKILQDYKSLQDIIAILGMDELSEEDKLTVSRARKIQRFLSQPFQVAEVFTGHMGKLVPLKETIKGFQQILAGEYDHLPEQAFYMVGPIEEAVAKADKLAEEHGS
# Results are given in words; binding and its absence hold for the method and conditions named. In cells and extracts the contact can be indirect. Some results given as binding are weak or reduced against the parent protein; the word gives no strength.
# T1: ATPase inhibitory factor 1 (ATIF1) (mouse (endogenous in heart mitochondria)) (UniProt O35143)
# T1 sequence: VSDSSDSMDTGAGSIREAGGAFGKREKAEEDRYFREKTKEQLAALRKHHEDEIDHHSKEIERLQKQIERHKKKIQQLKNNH
# T2: ATP synthase subunit ATPG (mouse (endogenous in heart mitochondria)) (UniProt Q91VR2)
# T2 sequence: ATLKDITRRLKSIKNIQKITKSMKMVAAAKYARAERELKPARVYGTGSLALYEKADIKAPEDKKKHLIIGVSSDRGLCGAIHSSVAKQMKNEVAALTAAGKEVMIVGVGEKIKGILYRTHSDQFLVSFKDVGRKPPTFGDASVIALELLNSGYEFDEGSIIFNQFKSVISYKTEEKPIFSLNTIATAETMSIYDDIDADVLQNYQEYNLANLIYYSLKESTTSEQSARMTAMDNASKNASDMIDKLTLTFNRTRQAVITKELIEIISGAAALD
# B1: malate dehydrogenase (MDHM) (enzyme, UniProt P08249 25-338)
# chain: AKVAVLGASGGIGQPLSLLLKNSPLVSRLTLYDIAHTPGVAADLSHIETRANVKGYLGPEQLPDCLKGCDVVVIPAGVPRKPGMTRDDLFNTNATIVATLTAACAQHCPEAMVCIIANPVNSTIPITAEVFKKHGVYNPNKIFGVTTLDIVRANTFVAELKGLDPARVNVPVIGGHAGKTIIPLISQCTPKVDFPQDQLATLTGRIQEAGTEVVKAKAGAGSATLSMAYAGARFVFSLVDAMNGKEGVVECSFVQSKETECTYFSTPLLLGKKGLEKNLGIGKITPFEEKMIAEAIPELKASIKKGEDFVKNMK
# B2: ATPase inhibitory factor 1 (ATIF1) (protein, UniProt O35143 26-106)
# chain: T1 sequence
# B3: citrate synthase (CISY) (enzyme, UniProt Q9CZU6 28-464)
# chain: ASSTNLKDVLSNLIPKEQARIKTFKQQHGKTVVGQITVDMMYGGMRGMKGLVYETSVLDPDEGIRFRGYSIPECQKMLPKAKGGEEPLPEGLFWLLVTGQMPTEEQVSWLSREWAKRAALPSHVVTMLDNFPTNLHPMSQLSAAITALNSESNFARAYAEGMNRAKYWELIYEDCMDLIAKLPCVAAKIYRNLYREGSSIGAIDSRLDWSHNFTNMLGYTDPQFTELMRLYLTIHSDHEGGNVSAHTSHLVGSALSDPYLSFAAAMNGLAGPLHGLANQEVLVWLTQLQKEVGKDVSDEKLRDYIWNTLNSGRVVPGYGHAVLRKTDPRYSCQREFALKHLPKDPMFKLVAQLYKIVPNILLEQGKAKNPWPNVDAHSGVLLQYYGMTEMNYYTVLFGVSRALGVLAQLIWSRALGFPLERPKSMSTDGLMKFVDSK
# How the values were obtained:
# Test in all cases: cross-linking; in-solution XL-MS: intact heart mitochondria (500 µg) of wild-type and Lrpprc knockout mice, 0.5 mM DSSO, 45 min, 15 °C; LC-MS/MS, XlinkX; n = 3 biological replicates
# [1] = target: ATP synthase F1 subunit α (ATPA) (mouse (endogenous in heart mitochondria)) (UniProt Q03265)
# [2] = target: ATP synthase F1 subunit β (ATPB) (mouse (endogenous in heart mitochondria)) (UniProt P56480)
# [3] = target: T1, ATPase inhibitory factor 1 (ATIF1) (mouse (endogenous in heart mitochondria))
# [4] = target: T2, ATP synthase subunit ATPG (mouse (endogenous in heart mitochondria))
binder,measurement,setting,value
B1,binding,[1],binds
same,binding,[2],binds
same,binding,[3],binds
B2,binding,[1],binds
same,binding,[2],binds
same,binding,[4],binds
same,binding,[3],binds
B3,binding,[3],binds
